Data as given in PubChem BioAssay AID588590 (National Center for Advancing Translational Sciences (NCATS), 2011).
Among all 390,000 compounds or so, about 4,000 (1%) were called active. This list was built around the results that the source calls inconclusive (neither active nor inactive); the mix of calls is not that of the screen. The call rests on the fitted dose curve; in most records, active means well fitted inhibition curve with a large enough effect; inconclusive means small, poorly fitted or top-dose-only effect, or another doubt; inactive means no such curve, though single readings can be large or run the other way. Potencies of inconclusive entries are doubtful fits and often do not repeat.

Chains of the proteins cited; added tags and fusions are not shown. Lines headed by an entry give the natural chain unless they say otherwise; changes in a name come on top.
UniProt Q9UNA4: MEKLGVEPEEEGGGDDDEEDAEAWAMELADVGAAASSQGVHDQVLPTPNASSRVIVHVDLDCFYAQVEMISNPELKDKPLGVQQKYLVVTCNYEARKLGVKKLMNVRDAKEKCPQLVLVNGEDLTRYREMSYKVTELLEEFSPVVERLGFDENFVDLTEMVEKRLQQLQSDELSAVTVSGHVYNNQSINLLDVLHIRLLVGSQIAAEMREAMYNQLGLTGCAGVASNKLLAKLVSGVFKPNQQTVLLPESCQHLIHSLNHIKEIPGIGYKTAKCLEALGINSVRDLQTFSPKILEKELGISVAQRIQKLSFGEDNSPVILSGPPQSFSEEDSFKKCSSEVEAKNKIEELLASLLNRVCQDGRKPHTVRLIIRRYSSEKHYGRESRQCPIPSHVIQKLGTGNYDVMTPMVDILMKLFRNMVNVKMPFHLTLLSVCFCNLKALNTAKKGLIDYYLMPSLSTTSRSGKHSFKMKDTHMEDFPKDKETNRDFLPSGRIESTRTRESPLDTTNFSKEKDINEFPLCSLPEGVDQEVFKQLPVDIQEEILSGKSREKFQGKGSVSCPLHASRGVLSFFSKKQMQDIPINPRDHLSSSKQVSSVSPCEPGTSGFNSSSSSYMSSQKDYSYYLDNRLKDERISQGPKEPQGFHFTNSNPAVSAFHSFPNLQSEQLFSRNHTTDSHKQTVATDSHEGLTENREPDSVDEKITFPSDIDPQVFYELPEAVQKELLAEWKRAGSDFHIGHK

molecular target: DNA polymerase iota (Homo sapiens) (UniProt Q9UNA4); assay: qHTS for Inhibitors of Polymerase Iota; conditions: Pol iota fluorescent replication assay, 10 min; series mostly up to 115 µM
In short: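 Fluorescent replication assay read twice, at 0 min and 10 min after adding 50 nM (final) substrate. Enzyme (10 nM) and compounds were first incubated 15 min at room temperature; enzyme-free buffer wells were negative controls.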
Potency means the concentration at half of the fitted maximal effect.

Potency, inactive:
c1cc2c3c(c1)CCCN3CCC2
Cc1cccc(N2CCN(C(=O)CN3C(=O)CSc4c3c(C)nn4-c3ccccc3)CC2)c1C
CCN1CCN(CCNC(=O)c2ccc3nc(-c4cccc(C)c4)c(-c4cccc(C)c4)nc3c2)CC1
Cc1cc(C)cc(NC(=O)CSc2nc(-c3ccccc3)c3cc(F)ccc3n2)c1
CN1CCCc2ccccc21
Fc1cccc(-n2ncc3c2ncn2nc(Cc4ccccc4)nc32)c1
Clc1ccc(-c2nc(-c3ccccn3)no2)cc1Cl
COC(=O)[C@H](CO)N1C(=O)[C@@H]2[C@H](C1=O)C1C=C[C@H]2C1

Grouped by structure, the compounds so far with nitrogen in an aromatic ring
Potency, inactive:
Cc1cccc(N2CCN(C(=O)CN3C(=O)CSc4c3c(C)nn4-c3ccccc3)CC2)c1C
CCN1CCN(CCNC(=O)c2ccc3nc(-c4cccc(C)c4)c(-c4cccc(C)c4)nc3c2)CC1
Cc1cc(C)cc(NC(=O)CSc2nc(-c3ccccc3)c3cc(F)ccc3n2)c1
Fc1cccc(-n2ncc3c2ncn2nc(Cc4ccccc4)nc32)c1
Clc1ccc(-c2nc(-c3ccccn3)no2)cc1Cl

Following part.

Potency, inconclusive:
O=C(CSc1ncnc2c1sc1ccccc12)Nc1ccc(Br)cc1 70.8 µM [inhibitor, partial curve, poor fit]
Cc1sc(NC(=O)CSc2nc(O)cc(=O)[nH]2)nc1-c1ccccc1 31.6 µM [inhibitor, partial curve, poor fit]
CCC(=O)NC(=S)Nc1ccc(S(=O)(=O)N2CCN(C)CC2)cc1 100 µM [inhibitor, single point]
CCNC(=O)CCc1nc(-c2ccc(C(C)(C)C)cc2)no1 39.8 µM [inhibitor, partial curve, poor fit]
Cc1ccc(S(=O)(=O)Nn2c(C)ccc2C)cc1 22.4 µM [inhibitor, partial curve, poor fit]
COc1ccc2oc(=O)c(C(=O)Nc3ccccc3O)cc2c1 79.4 µM [inhibitor, partial curve]
CCOC(=O)c1ccc(NC(=O)CSc2ccc3ccccc3n2)cc1 20 µM [inhibitor, partial curve, poor fit]
O=C(CSc1nc2ccc(Cl)cc2[nH]1)c1ccc2c(c1)OCO2 35.5 µM [inhibitor, single point]
Nn1cnnc1N/N=C/c1cc(Br)cc(Br)c1O 89.1 µM [inhibitor, single point]
CCC1=NN2C(=N)/C(=C\c3cccn3-c3ccc(OC)cc3)C(=O)N=C2S1 100 µM [inhibitor, single point]
COc1cc(OC)cc(-c2c(C#Cc3ccsc3)c3cc(-c4cccc5[nH]cc(C=O)c45)ccc3n2C)c1 25.1 µM [inhibitor, full curve, poor fit]
Cc1cc(C)c(S(=O)(=O)Nc2ccc3c4c(cccc24)CC3)c(C)c1 44.7 µM [inhibitor, partial curve, poor fit]
CCCC(=O)Nc1ccc(C=C(C(C)=O)C(C)=O)cc1 35.5 µM [inhibitor, partial curve, poor fit]
CC(NS(=O)(=O)c1ccc(Br)s1)c1ccccc1 (stereo not given) 11.2 µM [inhibitor, partial curve]
O=C(CN1C(=O)/C(=C\c2ccco2)SC1=S)Nc1ccc(O)cc1C(=O)O 2.51 µM [inhibitor, partial curve, poor fit]
CN1CCS/C1=C/C=C1\SC(=S)N(CC(=O)O)C1=O 35.5 µM [inhibitor, partial curve, poor fit]
CCOc1cc([N+](=O)[O-])cc(/C=C2/NC(=O)N(Cc3ccccc3F)C2=O)c1O 63.1 µM [inhibitor, partial curve, poor fit]
CCOC(=O)N1CCN(CC(=O)Nc2ccc([N+](=O)[O-])cc2C(=O)Nc2ccccc2F)CC1 44.7 µM [inhibitor, partial curve, poor fit]
COc1ccc(-c2cc(C)nc3nc(N)nn23)cc1 7.08 µM [inhibitor, single point]
O=C(Nc1ccccc1N1CCOCC1)c1ccc2ccccc2n1 39.8 µM [inhibitor, single point]
COc1ccc(C2CC(c3cccs3)=NN2C(=O)c2ccco2)cc1OC (stereo not given) 89.1 µM [inhibitor, single point]
O=C(O)CCC(=O)N(Cc1cccs1)Cc1cccs1 56.2 µM [inhibitor, partial curve, poor fit]
COc1ccc(-n2c(SCC(=O)c3ccc[nH]3)nnc2-c2ccccc2)cc1 112 µM [inhibitor, partial curve, poor fit]
CCSC1=C(C#N)C(=O)n2c1cc1c2CCCC1 17.8 µM [inhibitor, full curve, poor fit]
N#Cc1ccc(N[C@@H]2CCN3C(=O)c4ccccc4[C@@H]3C[C@H]2O)cc1 35.5 µM [inhibitor, partial curve, poor fit]
O=C1C2CCCCN2C(=O)N1CCCCN1CCN(c2ccccc2Oc2ccccc2)CC1 (stereo not given) 44.7 µM [inhibitor, partial curve, poor fit]
CCNc1nc(NCC)n2c(SCC(=O)Nc3ccc(Br)cc3F)nnc2n1 12.6 µM [inhibitor, full curve, poor fit]
C=CCOc1ccc(/C=C2\SC(=S)N(NS(=O)(=O)c3ccccc3)C2=O)cc1 20 µM [inhibitor, partial curve, poor fit]
Cc1cn(-c2ccc(Br)cc2)[nH]c1=O 112 µM [inhibitor, partial curve, poor fit]
O=[N+]([O-])c1cccc(/C=C/c2nc3ccc([N+](=O)[O-])cc3[nH]2)c1 14.1 µM [inhibitor, full curve, poor fit]
c1ccc(-c2cc(-c3nn4c(-c5ccco5)nnc4s3)c3ccccc3n2)cc1 12.6 µM [inhibitor, full curve, poor fit]

Potency, active:
Cc1ccc(-c2nn(-c3ccccc3)cc2/C=C2\SC(=S)N(CCCCCC(=O)O)C2=O)o1 89.1 µM
